The other results are listed elsewhere or left out.

The chains behind the UniProt entries cited, without tags or fusion partners.
UniProt Q0JBA9, entry or part of it: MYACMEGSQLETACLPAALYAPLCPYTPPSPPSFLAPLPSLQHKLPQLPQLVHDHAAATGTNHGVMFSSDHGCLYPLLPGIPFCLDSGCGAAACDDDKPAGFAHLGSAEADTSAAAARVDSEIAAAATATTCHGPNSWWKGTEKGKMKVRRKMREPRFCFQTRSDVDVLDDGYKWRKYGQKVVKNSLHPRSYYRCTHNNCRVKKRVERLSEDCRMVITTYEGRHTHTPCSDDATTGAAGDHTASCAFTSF

The target in this assay is OsWRKY34 (Oryza sativa, UniProt Q0JBA9 1-250). The experiment in a line: protein-binding microarray (RPBM); PBS, 2% BSA, 51.3 ng/ul salmon testes DNA, 50 uM zinc acetate, 200 nM TF, 25 C, 1 h; high values mean tight binding. The note with it: protein: recombinant; tags: N-terminal polyhistidine and DsRed monomer fusion (pET32a); label: CyDye5-dUTP incorporated in the synthesized complementary strand; 3' TTTTT single-stranded linker to array surface; dsDNA, one strand shown. Put shortly:
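Binding signal here means per-feature fluorescence intensity in arbitrary units. The values were read on an Axon 4000B scanner after a custom Agilent array, double-stranded by primer extension with Cy5-dUTP, was incubated with 200 nM protein at 25 °C for 1 h in PBS with 2% BSA, salmon testes DNA and 50 µM zinc acetate, then washed. The proteins were transcription factors with an N-terminal polyhistidine tag and DsRed, expressed in E. coli BL21-CodonPlus and purified on Ni–NTA.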
With “TTTAGCACGTATTTGACCGTTCGTCTTATTCAAAAACTTTCGGAGTCACCTAGTGCAG”, the binding signal is 8790 fluorescence intensity (a.u.).
The same measure for “CGTCAATCTTGTGTTTCTTTCATTCCATTGTACTTACAATCGGAGTCACCTAGTGCAG”: 9270 fluorescence intensity (a.u.); for “TGGTTCCCATTGTGTGCGTTAACTTGCTGAGATATGGTGACGGAGTCACCTAGTGCAG”: 9830 fluorescence intensity (a.u.).
The same measure for “TCCCTCTGTTCAAAATGTTTGACACCGTTGACTTTTTAAGCGGAGTCACCTAGTGCAG”: 20700 fluorescence intensity (a.u.).
The same measure for “CATGTGGCACTAGCTTCTCTACCGCCTATGTTGTTGTCTGCGGAGTCACCTAGTGCAG”: 13700 fluorescence intensity (a.u.); for “AAGTACGAGTTCATCCCCAATCCTCCAATCCTTCGGTTCCCGGAGTCACCTAGTGCAG”: 8350 fluorescence intensity (a.u.); for “CTCCTGCGCTCGCCTCCTCGCCCAATTCCGTCCCCAATTCCGGAGTCACCTAGTGCAG”: 9570 fluorescence intensity (a.u.).
“CTTCTCTTCTTCCTTGTTCGTTCATCCCCTAACCCTTTCTCGGAGTCACCTAGTGCAG”: the binding signal is 9270 fluorescence intensity (a.u.).
Then “TATTTATTTATTTATTTATTTACTAGTAATATAATATATACGGAGTCACCTAGTGCAG”, with 8080 fluorescence intensity (a.u.); and “ACTCCCTTTCCATCAGACACATTTCACCATTAAGTTTCTTCGGAGTCACCTAGTGCAG”, with 12100 fluorescence intensity (a.u.); and “ATTATCCTTAAGTCTTGCGGCACCCAGTTCTTTTGTTCTTCGGAGTCACCTAGTGCAG”, with 11000 fluorescence intensity (a.u.).
Take “GCCATCTGCCACCGCTTTTCACCTTTTTCTCGCCTACAAACGGAGTCACCTAGTGCAG”: the binding signal was 9680 fluorescence intensity (a.u.).
As to “CGTTGACTTTTTTAAATATATTTAGCAGTTCGTCTTATTACGGAGTCACCTAGTGCAG”, the binding signal was 16500 fluorescence intensity (a.u.).
The same measure for “TGTCATATTCCTGCACCTGCAGTTGTTGCGTGTTCATAACCGGAGTCACCTAGTGCAG”: 9700 fluorescence intensity (a.u.); for “GTGGAGGTCGGGGTCGGGGAGGATGAGGAGGAGGGTGTGGCGGAGTCACCTAGTGCAG”: 10100 fluorescence intensity (a.u.); for “TAGATTAATTATGCATCCTCCGTTCCTCCAGCCGATCGATCGGAGTCACCTAGTGCAG”: 8190 fluorescence intensity (a.u.).
Then “GTTTTTAATTTCGATAATATTTGATTCTGTTTTCGTGTCCCGGAGTCACCTAGTGCAG”, with 8930 fluorescence intensity (a.u.); and “ATACAATTCTCACTGCCACCTTATTGCTAGCTGCTACAAACGGAGTCACCTAGTGCAG”, with 12700 fluorescence intensity (a.u.); and “CTAACTCTCCAGCTCTATTTATCAATGTCGATTTCTTACTCGGAGTCACCTAGTGCAG”, with 10500 fluorescence intensity (a.u.).
For “GGATGGTGGTGATGGCGAAAGATTAACGTAGAATGTACCGCGGAGTCACCTAGTGCAG”, the binding signal is 8620 fluorescence intensity (a.u.).
Then “ATAGATGACGCCGTTGATTTTTTCTCATATGTTTGACCATCGGAGTCACCTAGTGCAG”, with 11600 fluorescence intensity (a.u.); and “TGATCCGGTTCCCTTTTGACCTCACTGCACTGTCCCAGATCGGAGTCACCTAGTGCAG”, with 10300 fluorescence intensity (a.u.).
Consider “AGCAGAGTCATAGTTTTTTCATGTAATTCACTGACCTCTCCGGAGTCACCTAGTGCAG”, for which the binding signal is 8570 fluorescence intensity (a.u.).
The same measure for “CGGAGTACGCGGTACACGGCCATCGCTTTTAAAATCTTGTCGGAGTCACCTAGTGCAG”: 8040 fluorescence intensity (a.u.); for “TATCACTTGCACTCCTATTCTTTCACTTATTCGCTTATTCCGGAGTCACCTAGTGCAG”: 8610 fluorescence intensity (a.u.).
The same measure for “GGACAGAACGTTGCCGCCTTTTATTCATGTAGAGACAGACCGGAGTCACCTAGTGCAG”: 8930 fluorescence intensity (a.u.); for “CTGGCAGTGGAGCCACCGTGTCACTGTCACCTACCAAAGCCGGAGTCACCTAGTGCAG”: 8550 fluorescence intensity (a.u.); for “TTTCCCGTGTTGTCATCTATCTGCTCATATTTTTTTAAAACGGAGTCACCTAGTGCAG”: 8320 fluorescence intensity (a.u.).
Regarding “TTTAGGGTTTTCTCATTGAAGTTTATTTTTCAGCCTTTACCGGAGTCACCTAGTGCAG”, the binding signal is 8540 fluorescence intensity (a.u.).
For “TTTCATGTTCGTGAAAATTATACATTTTATATGCGCCTTTCGGAGTCACCTAGTGCAG”, the binding signal is 8720 fluorescence intensity (a.u.).
With “CACTTTCTAGATCGATGTTCATTTGGTTTTCTTCTTTACTCGGAGTCACCTAGTGCAG”, the binding signal was 9740 fluorescence intensity (a.u.).
With “CTTTAATTTTAATTAGAGTTTCTTGCATCGGTTTCCAATGCGGAGTCACCTAGTGCAG”, the binding signal was 27700 fluorescence intensity (a.u.).
Then “GGGGTTATATATTTTTTATATCTAAATTTTGAGAAAGCTACGGAGTCACCTAGTGCAG”, with 10600 fluorescence intensity (a.u.); and “TTTTACAACAGTTTCAAGCAGTGGTCGCAAGTTATTTTCCCGGAGTCACCTAGTGCAG”, with 8840 fluorescence intensity (a.u.).
For the sequence “GTCTCTGCTCCCCGCTATTTACACTTCGCAATACCCAGATCGGAGTCACCTAGTGCAG”, the binding signal is 8350 fluorescence intensity (a.u.).
In the case of “GCATACTGGCATATTTCTTTCTTTCTTTCTTTTTGAAAAACGGAGTCACCTAGTGCAG”, the binding signal was 8480 fluorescence intensity (a.u.).
As for “GGTGGGTAGGGTTAATTTTGGTTGGAGGTAGAGAGAGAGACGGAGTCACCTAGTGCAG”, the binding signal is 14300 fluorescence intensity (a.u.).
Then “ACATTTACTAATCCACTTACACTTTCGTCCTCGCTTCATGCGGAGTCACCTAGTGCAG”, with 8490 fluorescence intensity (a.u.).
The same measure for “GTCACCGCCCACAAACCCATCACCGGCCGGCGAGGGCCCTCGGAGTCACCTAGTGCAG”: 11900 fluorescence intensity (a.u.).
The same measure for “AACCTCAATGCCCTTATCCGATTGCCATTAGGGCTCTAGCCGGAGTCACCTAGTGCAG”: 8820 fluorescence intensity (a.u.).
In the case of “CCTCTTTTTCTATCCTGGATTCGCCGCTGGTACGGGTTGACGGAGTCACCTAGTGCAG”, the binding signal was 14000 fluorescence intensity (a.u.).
On to “GACGTCAGCATACACCTCGGACACTGAGGTCTTAGTTTCACGGAGTCACCTAGTGCAG”, for which the binding signal was 8310 fluorescence intensity (a.u.).
